PubChem BioAssay AID720710, VTT Finland | 2013

Assay: 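Genes whose loss lowers DNA synthesis when an oncogene drives replication stress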 (primary screen)
Cell system: human U-2 OS bone cancer cells, parental and a cyclin E (CCNE1) overexpressing line
Knock-down reagent: single siRNA against human genes, 1 µM siRNA in the printed spot mix
Time to read-out: 67 h
Challenge: half the arrays: hydroxyurea 2 mM for 16 h, then 3 h recovery; other arrays untreated
Measured: 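EdU click signal imaged per DAPI-stained nucleus at 67 h; each spot divided by its subgrid median, then z-scored relative to non-targeting control spots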
Scale: EdU z-score, cyclin E line, hydroxyurea: higher = more DNA synthesis than non-targeting controls
This is an unselected part of about 1,380 reagents tested. 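One array per condition without replicates; hydroxyurea arrays received 2 mM for 16 h plus 3 h recovery.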 Reagents against one gene are numbered here. Further read-outs or replicates are left out here.

CRY1 (cryptochrome circadian regulator 1) #1: EdU z-score, cyclin E line, hydroxyurea = -0.603
CRY1 (cryptochrome circadian regulator 1) #2: EdU z-score, cyclin E line, hydroxyurea = 1.2
BARD1 (BRCA1 associated RING domain 1) #1: EdU z-score, cyclin E line, hydroxyurea = -0.48
BARD1 (BRCA1 associated RING domain 1) #2: EdU z-score, cyclin E line, hydroxyurea = 0.234
SMC1A (structural maintenance of chromosomes 1A) #1: EdU z-score, cyclin E line, hydroxyurea = -1.25
SMC1A (structural maintenance of chromosomes 1A) #2: EdU z-score, cyclin E line, hydroxyurea = -0.594
H2BC7 (H2B clustered histone 7) #1: EdU z-score, cyclin E line, hydroxyurea = -0.235
H2BC7 (H2B clustered histone 7) #2: EdU z-score, cyclin E line, hydroxyurea = -0.0745
GTF2H3 (general transcription factor IIH subunit 3) #1: EdU z-score, cyclin E line, hydroxyurea = -0.311
GTF2H3 (general transcription factor IIH subunit 3) #2: EdU z-score, cyclin E line, hydroxyurea = 3.3
SUMO4 (small ubiquitin like modifier 4) #1: EdU z-score, cyclin E line, hydroxyurea = -0.737
SUMO4 (small ubiquitin like modifier 4) #2: EdU z-score, cyclin E line, hydroxyurea = -0.53
H2BC12 (H2B clustered histone 12) #1: EdU z-score, cyclin E line, hydroxyurea = 1.02
H2BC12 (H2B clustered histone 12) #2: EdU z-score, cyclin E line, hydroxyurea = 1.55
PRIM1 (DNA primase subunit 1) #1: EdU z-score, cyclin E line, hydroxyurea = -2.38
PRIM1 (DNA primase subunit 1) #2: EdU z-score, cyclin E line, hydroxyurea = 0.16
CDK2AP1 (cyclin dependent kinase 2 associated protein 1) #1: EdU z-score, cyclin E line, hydroxyurea = -0.94
CDK2AP1 (cyclin dependent kinase 2 associated protein 1) #2: EdU z-score, cyclin E line, hydroxyurea = 2.24
ALKBH3 (alkB homolog 3, alpha-ketoglutarate dependent dioxygenase) #1: EdU z-score, cyclin E line, hydroxyurea = 0.116
ALKBH3 (alkB homolog 3, alpha-ketoglutarate dependent dioxygenase) #2: EdU z-score, cyclin E line, hydroxyurea = 0.634
H2BC8 (H2B clustered histone 8) #1: EdU z-score, cyclin E line, hydroxyurea = -0.701
H2BC8 (H2B clustered histone 8) #2: EdU z-score, cyclin E line, hydroxyurea = 0.0823
CCNE2 (cyclin E2) #1: EdU z-score, cyclin E line, hydroxyurea = -0.122
CCNE2 (cyclin E2) #2: EdU z-score, cyclin E line, hydroxyurea = 0.797
MEN1 (menin 1) #1: EdU z-score, cyclin E line, hydroxyurea = -1.4
MEN1 (menin 1) #2: EdU z-score, cyclin E line, hydroxyurea = -1.19
CHD7 (chromodomain helicase DNA binding protein 7) #1: EdU z-score, cyclin E line, hydroxyurea = -0.734
CHD7 (chromodomain helicase DNA binding protein 7) #2: EdU z-score, cyclin E line, hydroxyurea = 0.876
FANCE (FA complementation group E) #1: EdU z-score, cyclin E line, hydroxyurea = -1.22
FANCE (FA complementation group E) #2: EdU z-score, cyclin E line, hydroxyurea = -0.137
SSRP1 (structure specific recognition protein 1) #1: EdU z-score, cyclin E line, hydroxyurea = 0.642
SSRP1 (structure specific recognition protein 1) #2: EdU z-score, cyclin E line, hydroxyurea = 1.05
H4C14 (H4 clustered histone 14) #1: EdU z-score, cyclin E line, hydroxyurea = -1.55
H4C14 (H4 clustered histone 14) #2: EdU z-score, cyclin E line, hydroxyurea = -0.009
KAT6A (lysine acetyltransferase 6A) #1: EdU z-score, cyclin E line, hydroxyurea = 0.0601
KAT6A (lysine acetyltransferase 6A) #2: EdU z-score, cyclin E line, hydroxyurea = 0.495
NAP1L3 (nucleosome assembly protein 1 like 3) #1: EdU z-score, cyclin E line, hydroxyurea = -1.53
NAP1L3 (nucleosome assembly protein 1 like 3) #2: EdU z-score, cyclin E line, hydroxyurea = 0.65
SIRT4 (sirtuin 4) #1: EdU z-score, cyclin E line, hydroxyurea = -0.345
SIRT4 (sirtuin 4) #2: EdU z-score, cyclin E line, hydroxyurea = 0.513

3 entries already listed, arranged by “EdU z-score, cyclin E line, hydroxyurea”, high to low:
CDK2AP1 (cyclin dependent kinase 2 associated protein 1) #2: EdU z-score, cyclin E line, hydroxyurea = 2.24
ALKBH3 (alkB homolog 3, alpha-ketoglutarate dependent dioxygenase) #2: EdU z-score, cyclin E line, hydroxyurea = 0.634
ALKBH3 (alkB homolog 3, alpha-ketoglutarate dependent dioxygenase) #1: EdU z-score, cyclin E line, hydroxyurea = 0.116
